Earlier results as cited in patent US5493027A, “Anticonvulsive agents and uses thereof” (priority 1993, dated 1996).
For at least one compound, name, drawing or mass did not settle the structure.

Test system: MES
Conditions: Vida and Gerry, 1977; cited from earlier work

Structure (SMILES): O=C1NC(=O)C(c2ccccc2)(c2ccccc2)N1 [diphenylhydantoin]
- MES activity (words, literature): potent MES activity
